Laboratory results reported in PMC7819943, “Rice protein-binding microarrays: a tool to detect cis-acting elements near promoter regions in rice”.
Some of the results follow.

molecular target: T1, OsSMF1 (Oryza sativa, UniProt Q6ZLB0 1-436); assay: protein-binding microarray (RPBM); PBS, 2% BSA, 51.3 ng/ul salmon testes DNA, 50 uM zinc acetate, 200 nM TF, 25 C, 1 h; high values mean tight binding; conditions: protein: recombinant; tags: N-terminal polyhistidine and DsRed monomer fusion (pET32a); chain copies: 2; label: CyDye5-dUTP incorporated in the synthesized complementary strand; 3' TTTTT single-stranded linker to array surface; dsDNA, one strand shown
T1 sequence: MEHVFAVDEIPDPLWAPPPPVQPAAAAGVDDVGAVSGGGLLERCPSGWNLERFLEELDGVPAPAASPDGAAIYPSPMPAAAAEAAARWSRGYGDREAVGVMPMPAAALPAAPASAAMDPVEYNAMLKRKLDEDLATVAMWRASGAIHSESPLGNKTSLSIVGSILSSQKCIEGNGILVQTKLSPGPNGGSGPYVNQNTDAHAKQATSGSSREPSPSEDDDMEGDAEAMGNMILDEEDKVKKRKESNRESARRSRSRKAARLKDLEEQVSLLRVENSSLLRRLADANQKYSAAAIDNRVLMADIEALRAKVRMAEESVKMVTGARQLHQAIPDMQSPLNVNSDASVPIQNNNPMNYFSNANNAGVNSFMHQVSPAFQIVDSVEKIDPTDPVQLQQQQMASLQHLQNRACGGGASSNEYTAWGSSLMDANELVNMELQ
How it was run: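 Polyhistidine-tagged DsRed fusions of transcription factors, joined at the N-terminus, were expressed in E. coli BL21-CodonPlus and isolated on Ni–NTA. They were incubated at 200 nM for 1 h at 25 °C on a custom Agilent array, double-stranded and BSA-blocked, in PBS with 2% BSA, salmon testes DNA and 50 µM zinc acetate. The binding signal is per-feature fluorescence intensity (arbitrary units) read on an Axon 4000B scanner after washing.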

Going from “TTCTTCTTTCATAAAACCACATCATCTTACTTTTACATTTCGGAGTCACCTAGTGCAG” to “ACGCCCGGCCGGGCGTGGTCCACTCTTGCGTCGTCACGGCCGGAGTCACCTAGTGCAG”, the binding signal falls from 4700 fluorescence intensity (a.u.) to 4420 fluorescence intensity (a.u.).

Compared with “TTCTTACTGTGGTATTTATTGGTAGTAGAATCAATTTAGACGGAGTCACCTAGTGCAG”, “TCACCCACAACTACCACGTCGCCACCCACAAGCGCGACGTCGGAGTCACCTAGTGCAG” is higher in binding signal: 3270 fluorescence intensity (a.u.) for the first, 4120 fluorescence intensity (a.u.) for the second.

Going from “TCCGCGGCACGTGTCTAGTGCCTACGGGGCGTCATCCGGTCGGAGTCACCTAGTGCAG” to “GAGAGAGATGATGATGACGTGGTCACCCTGACGTGTGGGGCGGAGTCACCTAGTGCAG”, the binding signal rises from 5220 fluorescence intensity (a.u.) to 13000 fluorescence intensity (a.u.).

First: CCCGATTGAGATAGGTCATCTGTGACGGGCTATAGTTTGACGGAGTCACCTAGTGCAG
Second: CCCGGGGTGAGATGGGCCTTGGCCCATGATGGTGAGTGGGCGGAGTCACCTAGTGCAG
The binding signal of the first is higher: 10400 fluorescence intensity (a.u.) for the first, 3820 fluorescence intensity (a.u.) for the second.

First: ACGTTCGAGGAAGCTGCACCATATGAATCAACGCGTTATTCGGAGTCACCTAGTGCAG
Second: CCTCGCCGACGCTGTATGACGTCGAGTAGCGTGGTGCCTCCGGAGTCACCTAGTGCAG
The binding signal of the first is lower: 3260 fluorescence intensity (a.u.) for the first, 4430 fluorescence intensity (a.u.) for the second.

Compared with “TACCCAATGCGACGTGCCAAAACTTTAGACACCTGGATCTCGGAGTCACCTAGTGCAG”, “AGCGAGCACGCAGCAATGGTGGCGTCACCGTGACCTTCCGCGGAGTCACCTAGTGCAG” is higher in binding signal: 3150 fluorescence intensity (a.u.) for the first, 12300 fluorescence intensity (a.u.) for the second.

Compared with “GGCTCGATTCCGTCGCCACCCTGTGACAGCAGCAGCCACCCGGAGTCACCTAGTGCAG”, “GAGACCTCTCGCCGTCCCGCCACGCGCGCGCGCGAGCGAGCGGAGTCACCTAGTGCAG” is higher in binding signal: 3450 fluorescence intensity (a.u.) for the first, 5040 fluorescence intensity (a.u.) for the second.

Going from “ATCCTACTAAACTTATATTAGTCACCATCAAAATAGCTTCCGGAGTCACCTAGTGCAG” to “TGAGGATGCACGCGGCTGAAGATGAGCACAGCGGAGACTTCGGAGTCACCTAGTGCAG”, the binding signal rises from 3880 fluorescence intensity (a.u.) to 29500 fluorescence intensity (a.u.).

First: CCTCTCTTTCCAATCATGGGACATGTCACAGAGAATCAATCGGAGTCACCTAGTGCAG
Second: GCAGGGACAGAGTAGATTTTCGATTGACATGTCACCTGTTCGGAGTCACCTAGTGCAG
The binding signal of the first is lower: 3160 fluorescence intensity (a.u.) for the first, 4610 fluorescence intensity (a.u.) for the second.

First: GTGGCGCCTCCACCTCAAGATGACGTCAAATAAAATGTATCGGAGTCACCTAGTGCAG
Second: CGACGCGCCCGCATTCCCCACGCTGCTCCCTATTCCCCATCGGAGTCACCTAGTGCAG
The binding signal of the first is higher: 9220 fluorescence intensity (a.u.) for the first, 4070 fluorescence intensity (a.u.) for the second.

First: TTCCTTGCATAGGCGGCGGCTCGCCACGCTATCCCCTCGCCGGAGTCACCTAGTGCAG
Second: CTGCCACGCCGCCGTAACCACCACTCAACTGCCACATACCCGGAGTCACCTAGTGCAG
The binding signal of the first is higher: 6510 fluorescence intensity (a.u.) for the first, 3650 fluorescence intensity (a.u.) for the second.

Going from “GCCCCTTATTTGTTCATGCGTTGCTCCACATCCTCCATAACGGAGTCACCTAGTGCAG” to “GGAGTATATTATTCTCTATGACTTTGATCATAAAATGAGTCGGAGTCACCTAGTGCAG”, the binding signal falls from 4250 fluorescence intensity (a.u.) to 3480 fluorescence intensity (a.u.).

First: TGTCCCCGTCCCGTGTGCGACCAATTCGCCGTTCGTTGGGCGGAGTCACCTAGTGCAG
Second: TCTTAAGCGACGGGCGCCTTCGTGACTCCTCATTTGCATCCGGAGTCACCTAGTGCAG
The binding signal of the first is lower: 3540 fluorescence intensity (a.u.) for the first, 4810 fluorescence intensity (a.u.) for the second.

Going from “TGTTGGGCCCACATCATTTTCTCTCACTGACATGTGGGCCCGGAGTCACCTAGTGCAG” to “TTCCAGAATCAGAATAGTGAAGCAACTGACGTGTCAAGTACGGAGTCACCTAGTGCAG”, the binding signal rises from 3730 fluorescence intensity (a.u.) to 20800 fluorescence intensity (a.u.).

Compared with “GACAATTATAAAGGGCACATCAGGAAATTTACCTACCGCACGGAGTCACCTAGTGCAG”, “GACCGCCACCTCCGCCTCCGCGTGATCACAGTCACGTGGGCGGAGTCACCTAGTGCAG” is lower in binding signal: 20000 fluorescence intensity (a.u.) for the first, 4480 fluorescence intensity (a.u.) for the second.

Going from “GCTACTAAGGAGTACTACAATATTGCATCATCGTCATCATCGGAGTCACCTAGTGCAG” to “TGAATTTCCGGGCGTGACATTACGCCACCATCCCGAACAGCGGAGTCACCTAGTGCAG”, the binding signal falls from 6340 fluorescence intensity (a.u.) to 3700 fluorescence intensity (a.u.).

Going from “TGGGTGATGCCACATTGCCATTGCCACGACGACTTCTTCCCGGAGTCACCTAGTGCAG” to “ATACTATAAATTTGGATATGCTCTATAGTACTACAAATCTCGGAGTCACCTAGTGCAG”, the binding signal rises from 5760 fluorescence intensity (a.u.) to 29100 fluorescence intensity (a.u.).

First: GTAGGATATGATGCACAATTCGCTTCCCAGTCACCTTCCACGGAGTCACCTAGTGCAG
Second: CTTCTAGTGAGTTGATTGAAGGGATCTAATCCTGGGTCCGCGGAGTCACCTAGTGCAG
The binding signal of the first is higher: 3570 fluorescence intensity (a.u.) for the first, 3180 fluorescence intensity (a.u.) for the second.

Going from “ATCTTGATATTGACGAAGTCATCACATGCGCATCGTTGCCCGGAGTCACCTAGTGCAG” to “CAAGTTGTGACATTGAAAATGAGGGGTATGACTAGACACACGGAGTCACCTAGTGCAG”, the binding signal rises from 3150 fluorescence intensity (a.u.) to 6580 fluorescence intensity (a.u.).

Compared with “TGCATCTCAACGATCGACCATCATAACGAGTTCCACGTAGCGGAGTCACCTAGTGCAG”, “AAGCCCTCGCGTTTCATCATGTGTGTGGTGAGTCATGGAGCGGAGTCACCTAGTGCAG” is higher in binding signal: 3560 fluorescence intensity (a.u.) for the first, 13700 fluorescence intensity (a.u.) for the second.

Going from “CCTCGCTGGGGTGCACCGCCGCTGCATCGGCTCCACTCGGCGGAGTCACCTAGTGCAG” to “TTGCACCAGTGCCACTGCCACCTAGCTCACCCTGTCATTTCGGAGTCACCTAGTGCAG”, the binding signal falls from 3870 fluorescence intensity (a.u.) to 3390 fluorescence intensity (a.u.).
